Test results taken from publication PMC10009755, “Discovery and Characterization of BAY-805, a Potent and Selective Inhibitor of Ubiquitin-Specific Protease USP21” (Journal of Medicinal Chemistry, 2023).

Assays:
[1] = biological target: PKA(h) (Homo sapiens, UniProt P17612); assay: biochemical
[2] = biological target: AMPKalpha1(h) (Homo sapiens, UniProt Q13131); assay: biochemical
[3] = biological target: AMPKalpha2(h) (Homo sapiens, UniProt P54646); assay: biochemical
[4] = in vitro; details: human, Caco-2, pH 7.2
Protocol: Caco-2 cells [purchased from the German Collection of Microorganisms and Cell Cultures (DSMZ)] were seeded at a density of 4.5 × 10^4 cells/well on 24-well insert plates [0.4 μm pore size, 0.3 cm^2 (Costar)] and grown for 13–15 days in DMEM medium supplemented with 10% fetal calf serum (FCS), 1% GlutaMAX (100×, Gibco), 100 U/mL penicillin, 100 μg/mL streptomycin (Gibco), and 1% nonessential amino acids (100×, Thermo Fischer Scientific). […] The medium was changed every 2–3 days.
The bidirectional transport assay for the evaluation of Caco-2 permeability was undertaken in 24-well insert plates using a robotic system (Tecan). Before the assay was run, the culture medium was replaced by a transport medium (FCS-free HEPES carbonate transport buffer pH 7.2). For the assessment of monolayer integrity, the transepithelial electrical resistance (TEER) was measured. Only monolayers with a TEER of at least 400 Ω·cm^2 were used. Test compounds were pre-dissolved in DMSO and added either to the apical or basolateral compartment at a final concentration of 2 μM. The evaluation was performed in triplicate. […] The efflux ratio (ER) basolateral (B) to apical (A) was calculated by dividing Papp B–A by Papp A–B.

[5] = tested on: 44 individual DUB targets
[6] = tested on: panel of 10 individual USPs; assay: SGC USP selectivity screen, whole panel; type: biochemical

| SMILES | inhibition at 10 µM [1] [%] | inhibition at 10 µM [2] [%] | inhibition at 10 µM [3] [%] | Papp B→A at 2 h, 2 µM [4] [×10⁻⁶ cm/s] | remaining DUB activity [5] [%] | remaining USP activity [6] [%] |
| --- | --- | --- | --- | --- | --- | --- |
| CC(C)C[C@H](NC(=O)C1(C(F)(F)F)CCCCC1)C(=O)Nc1nnc(Cc2ccc(C#N)cc2)s1 [Compound 22, CC(C)C[C@H](NC(=O)C1(CCCCC1)C(F)(F)F)C(=O)Nc2nnc(Cc3ccc(cc3)C#N)s2] | 4.33 | 7.32 | -8.56 | – | – | – |
| CC(C)C[C@@H](NC(=O)C1(C(F)(F)F)CCCCC1)C(=O)Nc1nnc(Cc2ccc(C#N)cc2)s1 [Compound 21, N-[(1R)-1-[[5-[(4-Cyanophenyl)methyl]-1,3,4-thiadiazol-2-yl]carbamoyl]-3-methyl-butyl]-1-(trifluoromethyl)cyclohexanecarboxamide] | 2.87 | 11.2 | 8.04 | 2.7 | > 85 | > 50 |
